Laboratory results published in paper PMC5415356.
Substitutions are numbered along the chain they refer to. In names and notes the source's numbering stands. Results are given in words; binding and its absence hold for the method and conditions named. In cells and extracts the contact can be indirect. Some entries that bind do so weakly or less than the wild type. For some assays here: Where a sequence is shown, tags or fusion partners need not be part of it.

Protein sequences, listed by entry. Tags and fused reporters are not part of them.
UniProt Q8NI35: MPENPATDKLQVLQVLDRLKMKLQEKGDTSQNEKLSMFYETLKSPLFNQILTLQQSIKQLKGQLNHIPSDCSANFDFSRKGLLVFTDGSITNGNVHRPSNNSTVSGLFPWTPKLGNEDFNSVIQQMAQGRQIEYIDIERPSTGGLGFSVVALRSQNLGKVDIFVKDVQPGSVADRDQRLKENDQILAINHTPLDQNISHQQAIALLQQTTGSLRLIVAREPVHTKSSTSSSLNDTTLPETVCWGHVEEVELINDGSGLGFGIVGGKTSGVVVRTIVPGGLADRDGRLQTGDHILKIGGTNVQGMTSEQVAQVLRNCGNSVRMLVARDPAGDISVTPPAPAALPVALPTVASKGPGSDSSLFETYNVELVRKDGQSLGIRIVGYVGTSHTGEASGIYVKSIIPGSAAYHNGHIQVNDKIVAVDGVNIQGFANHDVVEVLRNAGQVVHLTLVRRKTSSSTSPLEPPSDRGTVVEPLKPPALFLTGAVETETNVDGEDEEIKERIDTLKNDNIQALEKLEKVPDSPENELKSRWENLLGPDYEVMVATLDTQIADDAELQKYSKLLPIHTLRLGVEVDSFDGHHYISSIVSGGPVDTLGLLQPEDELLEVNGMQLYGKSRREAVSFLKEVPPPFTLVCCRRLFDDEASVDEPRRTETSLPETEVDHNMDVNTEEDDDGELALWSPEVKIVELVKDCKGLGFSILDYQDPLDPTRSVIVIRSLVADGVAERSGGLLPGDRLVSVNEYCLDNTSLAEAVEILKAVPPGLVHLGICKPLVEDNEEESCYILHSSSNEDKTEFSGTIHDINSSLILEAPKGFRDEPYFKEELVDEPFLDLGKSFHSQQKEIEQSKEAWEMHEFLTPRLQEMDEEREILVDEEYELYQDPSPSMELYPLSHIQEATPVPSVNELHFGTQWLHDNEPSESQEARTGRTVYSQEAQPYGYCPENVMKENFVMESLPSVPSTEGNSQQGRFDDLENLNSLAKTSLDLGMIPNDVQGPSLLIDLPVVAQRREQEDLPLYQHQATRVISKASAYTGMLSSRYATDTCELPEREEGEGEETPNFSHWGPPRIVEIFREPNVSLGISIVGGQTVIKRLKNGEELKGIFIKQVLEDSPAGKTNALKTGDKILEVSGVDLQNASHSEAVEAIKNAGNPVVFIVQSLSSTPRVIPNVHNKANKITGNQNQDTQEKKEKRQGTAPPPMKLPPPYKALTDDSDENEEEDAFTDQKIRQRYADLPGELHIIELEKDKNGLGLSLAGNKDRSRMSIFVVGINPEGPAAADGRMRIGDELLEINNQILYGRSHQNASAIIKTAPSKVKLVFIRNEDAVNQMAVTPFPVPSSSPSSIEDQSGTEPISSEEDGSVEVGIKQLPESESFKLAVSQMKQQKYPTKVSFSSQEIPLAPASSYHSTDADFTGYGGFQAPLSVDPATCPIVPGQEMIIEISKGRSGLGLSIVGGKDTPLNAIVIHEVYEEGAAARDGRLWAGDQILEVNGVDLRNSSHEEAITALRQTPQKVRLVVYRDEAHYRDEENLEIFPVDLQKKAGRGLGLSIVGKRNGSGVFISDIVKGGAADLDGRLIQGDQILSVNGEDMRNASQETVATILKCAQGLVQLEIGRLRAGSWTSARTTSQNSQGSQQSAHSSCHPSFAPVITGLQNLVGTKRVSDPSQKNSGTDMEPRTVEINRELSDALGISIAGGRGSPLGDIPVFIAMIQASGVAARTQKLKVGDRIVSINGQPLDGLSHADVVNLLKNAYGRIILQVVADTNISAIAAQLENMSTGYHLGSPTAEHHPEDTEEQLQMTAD
UniProt P35240: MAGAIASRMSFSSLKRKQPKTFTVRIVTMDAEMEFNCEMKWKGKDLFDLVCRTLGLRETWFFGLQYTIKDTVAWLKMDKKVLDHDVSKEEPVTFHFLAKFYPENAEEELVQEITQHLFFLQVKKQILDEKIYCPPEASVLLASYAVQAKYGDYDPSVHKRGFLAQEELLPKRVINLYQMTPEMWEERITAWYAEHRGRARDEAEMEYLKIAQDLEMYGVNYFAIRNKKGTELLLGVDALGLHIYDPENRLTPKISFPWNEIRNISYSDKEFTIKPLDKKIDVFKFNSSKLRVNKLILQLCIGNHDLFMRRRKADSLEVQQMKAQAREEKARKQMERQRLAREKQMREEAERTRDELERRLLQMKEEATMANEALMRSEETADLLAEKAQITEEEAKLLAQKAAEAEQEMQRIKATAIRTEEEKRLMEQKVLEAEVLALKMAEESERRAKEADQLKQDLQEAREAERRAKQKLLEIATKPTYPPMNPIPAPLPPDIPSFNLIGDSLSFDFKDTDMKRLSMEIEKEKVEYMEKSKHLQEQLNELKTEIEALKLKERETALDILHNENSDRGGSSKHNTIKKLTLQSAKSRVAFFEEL
UniProt P46937: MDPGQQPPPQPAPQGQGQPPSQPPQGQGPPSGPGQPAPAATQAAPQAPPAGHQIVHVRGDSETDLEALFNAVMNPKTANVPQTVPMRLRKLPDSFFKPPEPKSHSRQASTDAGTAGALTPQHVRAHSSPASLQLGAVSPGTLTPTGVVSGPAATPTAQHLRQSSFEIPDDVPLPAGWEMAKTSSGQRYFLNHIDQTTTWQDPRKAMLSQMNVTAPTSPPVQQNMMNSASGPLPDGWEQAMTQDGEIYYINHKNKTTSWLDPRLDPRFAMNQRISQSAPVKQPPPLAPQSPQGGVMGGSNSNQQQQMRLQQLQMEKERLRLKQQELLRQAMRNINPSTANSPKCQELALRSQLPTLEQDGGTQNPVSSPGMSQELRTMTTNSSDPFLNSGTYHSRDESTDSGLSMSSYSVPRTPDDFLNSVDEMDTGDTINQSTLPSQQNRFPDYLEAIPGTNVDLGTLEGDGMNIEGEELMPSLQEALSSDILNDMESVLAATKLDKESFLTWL

T1: HA-Amot-p130 (mouse (by the paper's numbering: Ser176 in mouse, Ser175 in human)) (UniProt Q8VHG2)
T1 sequence: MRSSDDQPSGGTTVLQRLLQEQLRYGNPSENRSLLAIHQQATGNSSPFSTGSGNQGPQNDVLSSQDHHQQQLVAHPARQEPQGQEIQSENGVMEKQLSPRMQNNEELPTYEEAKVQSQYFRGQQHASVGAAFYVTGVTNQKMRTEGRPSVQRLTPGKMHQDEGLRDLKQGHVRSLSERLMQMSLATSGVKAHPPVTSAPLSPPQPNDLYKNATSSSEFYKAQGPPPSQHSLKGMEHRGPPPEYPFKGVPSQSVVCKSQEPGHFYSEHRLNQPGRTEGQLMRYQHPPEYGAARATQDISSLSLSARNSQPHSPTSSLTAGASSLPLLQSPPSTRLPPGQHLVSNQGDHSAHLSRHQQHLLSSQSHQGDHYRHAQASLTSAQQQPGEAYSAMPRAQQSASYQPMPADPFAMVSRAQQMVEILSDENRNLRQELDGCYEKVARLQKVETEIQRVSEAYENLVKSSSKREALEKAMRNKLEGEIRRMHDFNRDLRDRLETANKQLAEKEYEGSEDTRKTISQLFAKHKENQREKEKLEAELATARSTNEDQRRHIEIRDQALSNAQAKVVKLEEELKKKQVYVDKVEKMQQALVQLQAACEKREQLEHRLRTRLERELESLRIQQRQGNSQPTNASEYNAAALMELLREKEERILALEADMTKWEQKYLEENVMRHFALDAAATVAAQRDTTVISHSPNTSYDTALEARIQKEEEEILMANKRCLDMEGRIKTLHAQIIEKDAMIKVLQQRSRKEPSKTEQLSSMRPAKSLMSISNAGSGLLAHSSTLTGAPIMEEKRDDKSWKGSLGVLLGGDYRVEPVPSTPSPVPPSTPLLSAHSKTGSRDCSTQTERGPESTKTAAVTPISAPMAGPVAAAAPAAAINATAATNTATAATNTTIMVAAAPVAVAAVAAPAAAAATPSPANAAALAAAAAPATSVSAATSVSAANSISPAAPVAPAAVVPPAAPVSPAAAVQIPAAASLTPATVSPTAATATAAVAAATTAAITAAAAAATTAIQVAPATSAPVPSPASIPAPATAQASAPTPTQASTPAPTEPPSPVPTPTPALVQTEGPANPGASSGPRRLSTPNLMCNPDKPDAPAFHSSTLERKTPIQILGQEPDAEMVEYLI

T2: HA-Amot-p130^S176A (mouse (by the paper's numbering: Ser176 in mouse, Ser175 in human)) (UniProt Q8VHG2)
T2 sequence: T1 sequence with S176A

T3: HA-Amot-p130^S176E (mouse (by the paper's numbering: Ser176 in mouse, Ser175 in human)) (UniProt Q8VHG2)
T3 sequence: T1 sequence with S176E

T4: Amot-p130 phosphorylated at S176 (mouse (by the paper's numbering: Ser176 in mouse, Ser175 in human)) (UniProt Q8VHG2)
T4 sequence (chain, phosphoserine at 176): T1 sequence

B1: HA-Amot-p130 (protein, UniProt Q8VHG2 1-1126)
chain: T1 sequence
B2: HA-Amot-p130^S176A (protein, UniProt Q8VHG2 1-1126)
chain: T1 sequence with S176A

Columns and labels:
[1] = target: T1, HA-Amot-p130 (mouse (by the paper's numbering: Ser176 in mouse, Ser175 in human)); assay: co-IP; HEK293-shAmot cells co-transfected with an Amot-p130 allele (WT, S176A, S176E or PY motif mutants) and tagged partners; total RIPA lysate, IP with tag or protein antibodies overnight, immunoblot
[2] = target: T2, HA-Amot-p130^S176A (mouse (by the paper's numbering: Ser176 in mouse, Ser175 in human)); assay: as above
[3] = target: T3, HA-Amot-p130^S176E (mouse (by the paper's numbering: Ser176 in mouse, Ser175 in human)); assay: as above
[4] = target: T4, Amot-p130 phosphorylated at S176 (mouse (by the paper's numbering: Ser176 in mouse, Ser175 in human)); assay: co-IP; HEK293-shAmot cells transfected with Amot-p130; IPs with antibodies to phospho-Amot (Ser176), YAP or Merlin, immunoblot
Flag-tagged Patj = Flag-tagged Patj (UniProt Q8NI35); assay: co-IP; HEK293-shAmot cells co-transfected with an Amot-p130 allele (WT, S176A, S176E or PY motif mutants) and tagged partners; total RIPA lysate, IP with tag or protein antibodies overnight, immunoblot

Molecule | binding [3] | binding [4] | binding (Flag-tagged Patj) | further results
Flag-tagged Merlin (from UniProt P35240 1-595) | binds | – | – | binding [1]: binds; binding [2]: binds
Flag-tagged Patj (from UniProt Q8NI35 1-1801) | binds | – | – | –
Merlin (endogenous) (from UniProt P35240 1-595) | – | binds | – | –
YAP (endogenous) (from UniProt P46937 1-504) | – | binds | – | –
B1 | – | – | binds | –
B2 | – | – | no binding | –
